Experimental data reported in publication PMC5090039.
Read-outs that look alike come from different tables or passages of the source. No constants are given. Whether binding was seen depends on the method and setting. Binding seen in cells or lysates may run through a third protein. Some binding calls cover weakened binding; strength is not graded here. For part of these data: Tags and fused reporters may be left off the sequences shown.

Amino acid sequences for entries named in this document (tags omitted). A change or cut given only in a name is not applied to a line headed by its entry. Residues count along the entry.
UniProt O14964: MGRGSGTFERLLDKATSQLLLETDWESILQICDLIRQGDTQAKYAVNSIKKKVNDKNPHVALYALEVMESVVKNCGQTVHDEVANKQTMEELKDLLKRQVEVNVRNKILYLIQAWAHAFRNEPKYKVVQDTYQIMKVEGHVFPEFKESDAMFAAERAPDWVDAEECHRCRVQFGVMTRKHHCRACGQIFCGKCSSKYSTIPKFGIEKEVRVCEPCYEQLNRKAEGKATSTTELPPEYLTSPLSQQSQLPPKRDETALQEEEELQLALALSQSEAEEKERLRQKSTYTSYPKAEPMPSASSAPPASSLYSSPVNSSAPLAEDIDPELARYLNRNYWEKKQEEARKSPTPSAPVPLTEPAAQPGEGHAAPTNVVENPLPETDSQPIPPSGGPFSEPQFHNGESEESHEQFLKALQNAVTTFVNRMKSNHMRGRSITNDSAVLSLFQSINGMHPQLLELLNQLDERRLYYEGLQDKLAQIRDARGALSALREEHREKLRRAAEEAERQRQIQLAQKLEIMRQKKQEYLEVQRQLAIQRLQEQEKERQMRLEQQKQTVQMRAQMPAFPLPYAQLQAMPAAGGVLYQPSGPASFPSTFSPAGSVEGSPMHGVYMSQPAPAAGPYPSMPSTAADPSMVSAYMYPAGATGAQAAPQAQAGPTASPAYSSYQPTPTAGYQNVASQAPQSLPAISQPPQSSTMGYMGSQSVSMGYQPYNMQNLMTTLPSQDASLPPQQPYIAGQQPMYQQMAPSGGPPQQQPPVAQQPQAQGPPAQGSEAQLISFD
HCV NS4A (J6/JFH genome), GLuc2 fusion (hepatitis C virus (J6/JFH genome)) (Q99IB8, residues 1662-1715): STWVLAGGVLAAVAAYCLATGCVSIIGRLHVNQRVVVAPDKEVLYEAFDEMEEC
HCV NS5A (J6/JFH genome), GLuc2 fusion (hepatitis C virus (J6/JFH genome)) (Q99IB8, residues 1977-2442): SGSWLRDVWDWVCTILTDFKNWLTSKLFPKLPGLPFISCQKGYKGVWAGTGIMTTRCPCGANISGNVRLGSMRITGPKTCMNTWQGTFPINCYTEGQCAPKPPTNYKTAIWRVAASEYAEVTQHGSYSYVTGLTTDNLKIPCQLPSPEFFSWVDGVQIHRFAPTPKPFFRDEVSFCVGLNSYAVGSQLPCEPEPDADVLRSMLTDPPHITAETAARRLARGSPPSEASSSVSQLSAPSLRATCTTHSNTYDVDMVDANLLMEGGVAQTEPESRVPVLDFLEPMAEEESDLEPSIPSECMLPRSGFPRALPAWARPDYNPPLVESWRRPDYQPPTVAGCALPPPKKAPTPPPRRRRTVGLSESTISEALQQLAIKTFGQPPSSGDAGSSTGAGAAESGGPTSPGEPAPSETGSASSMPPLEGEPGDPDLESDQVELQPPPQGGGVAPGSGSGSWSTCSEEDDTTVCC
HCV p7 (J6/JFH genome), GLuc2 fusion (hepatitis C virus (J6/JFH genome)) (P26660, residues 751-813): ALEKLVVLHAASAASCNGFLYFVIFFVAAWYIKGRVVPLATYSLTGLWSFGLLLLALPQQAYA
HCV NS2 (J6/JFH genome), GLuc2 fusion (hepatitis C virus (J6/JFH genome)) (P26660, residues 814-1030): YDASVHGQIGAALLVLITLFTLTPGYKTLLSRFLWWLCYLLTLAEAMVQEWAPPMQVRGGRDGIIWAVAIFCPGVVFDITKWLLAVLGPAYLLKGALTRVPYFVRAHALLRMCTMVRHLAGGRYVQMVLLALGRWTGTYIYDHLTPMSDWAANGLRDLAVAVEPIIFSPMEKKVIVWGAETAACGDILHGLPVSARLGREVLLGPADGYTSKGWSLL
UniProt Q99816: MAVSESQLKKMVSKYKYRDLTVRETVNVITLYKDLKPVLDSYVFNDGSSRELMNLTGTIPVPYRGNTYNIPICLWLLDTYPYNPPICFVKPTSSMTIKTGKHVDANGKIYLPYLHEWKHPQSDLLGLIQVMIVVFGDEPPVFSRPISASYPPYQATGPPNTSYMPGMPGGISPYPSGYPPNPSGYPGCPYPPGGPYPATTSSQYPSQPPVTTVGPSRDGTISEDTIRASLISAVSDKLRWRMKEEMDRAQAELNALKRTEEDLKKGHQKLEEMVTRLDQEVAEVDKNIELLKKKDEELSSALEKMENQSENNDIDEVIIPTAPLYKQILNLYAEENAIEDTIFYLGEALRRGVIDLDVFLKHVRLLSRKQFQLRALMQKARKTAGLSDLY

Tests used:
[1] = target: HRS, endogenous in Huh-7.5 cells (human (endogenous in Huh-7.5)) (UniProt O14964); assay: co-IP; membrane fractions of Huh-7.5 cells transfected with J6/JFH HCV RNA (naive cells and IgG as controls); IP with anti-HRS, anti-NS2 or anti-NS5A antibodies, immunoblot
[2] = target: HCV NS5A expressed from J6/JFH HCV RNA (hepatitis C virus (J6/JFH genome)) (UniProt Q99IB8); assay: as above
[3] = target: HCV NS2 expressed from J6/JFH HCV RNA (hepatitis C virus (J6/JFH genome)) (UniProt P26660); assay: as above
[4] = target: HCV NS5A (J6/JFH genome), GLuc2 fusion (hepatitis C virus (J6/JFH genome)) (UniProt Q99IB8); assay: split reporter; protein-fragment complementation assay (PCA) with split Gaussia luciferase; GLuc1-prey (ESCRT) and GLuc2-bait (HCV) plasmids cotransfected pairwise into 293T cells in 96-well plates, lysed at 24 h; normalized luminescence ratio (NLR); positive at z score >2.2 (NLR >25)
[5] = target: HCV NS4A (J6/JFH genome), GLuc2 fusion (hepatitis C virus (J6/JFH genome)) (UniProt Q99IB8); assay: as above
[6] = target: TSG101, Gaussia luciferase fragment fusion (UniProt Q99816); assay: as above
[7] = target: HCV p7 (J6/JFH genome), GLuc2 fusion (hepatitis C virus (J6/JFH genome)) (UniProt P26660); assay: as above
[8] = target: HCV NS2 (J6/JFH genome), GLuc2 fusion (hepatitis C virus (J6/JFH genome)) (UniProt P26660); assay: as above
[9] = target: HCV NS2 (J6/JFH genome), GLuc2 fusion (hepatitis C virus (J6/JFH genome)) (UniProt P26660); assay: as above; remark: listed apart in the source
[10] = target: HCV NS5A (J6/JFH genome), GLuc2 fusion (hepatitis C virus (J6/JFH genome)) (UniProt Q99IB8); assay: as above; remark: listed apart in the source

Molecule: HCV NS2 expressed from J6/JFH HCV RNA (from UniProt P26660 814-1030)
- binding [1]: binds
- binding [2]: binds

Molecule: HCV NS5A expressed from J6/JFH HCV RNA (from UniProt Q99IB8 1977-2442)
- binding [3]: binds
- binding [1]: binds

Molecule: HRS (hepatocyte growth factor-regulated tyrosine kinase substrate), GLuc1 fusion (from UniProt O14964 1-777)
- binding [4]: binds
- binding [5]: binds
- binding [6]: binds
- binding [7]: binds
- binding [8]: binds

Molecule: HRS UIM double mutant A266Q/A268Q (from UniProt O14964 1-777)
- binding [6]: binds

Molecule: HRS UIM double mutant L269A/S270A (from UniProt O14964 1-777)
- binding [6]: binds

Molecule: HRS, endogenous in Huh-7.5 cells (from UniProt O14964 1-777)
- binding [3]: binds
- binding [2]: binds

B1: SLC9A6, GLuc1 fusion (protein, UniProt Q92581 1-701)
chain: MARRGWRRAPLRRGVGSSPRARRLMRPLWLLLAVGVFDWAGASDGGGGEARAMDEEIVSEKQAEESHRQDSANLLIFILLLTLTILTIWLFKHRRARFLHETGLAMIYGLLVGLVLRYGIHVPSDVNNVTLSCEVQSSPTTLLVNVSGKFYEYMLKGEISSHELNNVQDNEMLRKVTFDPEVFFNILLPPIIFYAGYSLKRRHFFRNLGSILAYAFLGTAISCFVIGSIMYGCVTLMKVTGQLAGDFYFTDCLLFGAIVSATDPVTVLAIFHELQVDVELYALLFGESVLNDAVAIVLSSSIVAYQPAGDNSHTFDVTAMFKSIGIFLGIFSGSFAMGAATGVVTALVTKFTKLREFQLLETGLFFLMSWSTFLLAEAWGFTGVVAVLFCGITQAHYTYNNLSTESQHRTKQLFELLNFLAENFIFSYMGLTLFTFQNHVFNPTFVVGAFVAIFLGRAANIYPLSLLLNLGRRSKIGSNFQHMMMFAGLRGAMAFALAIRDTATYARQMMFSTTLLIVFFTVWVFGGGTTAMLSCLHIRVGVDSDQEHLGVPENERRTTKAESAWLFRMWYNFDHNYLKPLLTHSGPPLTTTLPACCGPIARCLTSPQAYENQEQLKDDDSDLILNDGDISLTYGDSTVNTEPATSSAPRRFMGNSSEDALDRELAFGDHELVIRGTRLVLPMDDSEPPLNLLDNTRHGPA
- binding [9]: binds

B2: VPS4A, GLuc1 fusion (protein, UniProt Q9UN37 1-437)
chain: MTTSTLQKAIDLVTKATEEDKAKNYEEALRLYQHAVEYFLHAIKYEAHSDKAKESIRAKCVQYLDRAEKLKDYLRSKEKHGKKPVKENQSEGKGSDSDSEGDNPEKKKLQEQLMGAVVMEKPNIRWNDVAGLEGAKEALKEAVILPIKFPHLFTGKRTPWRGILLFGPPGTGKSYLAKAVATEANNSTFFSVSSSDLMSKWLGESEKLVKNLFELARQHKPSIIFIDEVDSLCGSRNENESEAARRIKTEFLVQMQGVGNNNDGTLVLGATNIPWVLDSAIRRRFEKRIYIPLPEEAARAQMFRLHLGSTPHNLTDANIHELARKTEGYSGADISIIVRDSLMQPVRKVQSATHFKKVCGPSRTNPSMMIDDLLTPCSPGDPGAMEMTWMDVPGDKLLEPVVCMSDMLRSLATTRPTVNADDLLKVKKFSEDFGQES
- binding [10]: binds
